Source: patent US20160068604A1 (University of Texas, published 2016)
These are yes or no findings as the source states them, for the method shown. Some binding calls cover weakened binding; strength is not graded here.

Assays:
human OX40 [1] = target: T1, human OX40 (human, UniProt P43489 29-277); test: cell ELISA on dried L-hOX40 versus parental L cells, anti-mouse IgG Fc HRP
T1 construct: whole, on cells; also called hOX40; OX40 receptor
T1 sequence (looked up): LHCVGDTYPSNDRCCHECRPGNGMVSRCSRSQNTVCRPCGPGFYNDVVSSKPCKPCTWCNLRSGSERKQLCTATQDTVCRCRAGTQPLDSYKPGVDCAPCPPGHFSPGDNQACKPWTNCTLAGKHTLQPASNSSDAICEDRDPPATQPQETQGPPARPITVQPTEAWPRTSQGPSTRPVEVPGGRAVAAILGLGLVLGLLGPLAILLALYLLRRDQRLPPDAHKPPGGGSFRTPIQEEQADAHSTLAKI
Protocol: In the experiment of FIG. 10, hOX40 hybridoma supernatants were screened against L-hOX40 versus L parental cells by ELISA. […] Plates were then frozen at −20° C. for at least one day before use. For antibody binding assays, frozen cells were rehydrated with PBS and washed with wash buffer containing PBS plus 0.05% Tween 20, and blocked with 2% BSA in wash buffer. Conditioned cells were then used for binding to OX40 antibody supernatants.

human OX40 [2] = target: T1, human OX40; test: flow cytometry on mixed L and L-hOX40 cells, 0.5 µg purified antibody, PE anti-mouse IgG
human OX40 [3] = target: T1, human OX40; test: flow cytometry on mixed SUPM2 and SUPM2-hOX40 cells

Measured: binding

B1: mouse anti-human OX40 monoclonal antibody 119-43 (antibody, V domains shown)
VH: EVKLEESGGGLVQPGGSMKLSCAASGFTFSDAWMDWVRQSPEKGLEWVAEIRSKANNHATYYAESVNGRFTISRDDSKSSVYLQMNSLRAEDTGIYYCTWGEVFYFDYWGQGTTLTVSS
VL: DIQMTQSPSSLSASLGGKVTITCKSSQDINKYIAWYQHKPGKGPRLLIHYTSTLQPGIPSRFSGSGSGRDYSFSISNLEPEDIATYYCLQYDNLLTFGAGTKLELK
binds: all assays above
